Test results from publication PMC10458388.
Results are given in words; binding and its absence hold for the method and conditions named. Binding can be weak; no strength is given.

Molecular target: C-terminus of human Hsp90α (residues 566-732) (human) (UniProt P07900)
Assay: SEC-MALS; SEC-MALS-QELS of the mixtures, molecular mass of the complex (Table S1); SbRPAP3 15 µmol/L with SsHsp70 15 µmol/L; SbRPAP3 with C-Hsp90; both purified

- binding: binds
Substance: Sorghum bicolor RPAP3 (RNA polymerase II-associated protein 3), isoform 2 (from UniProt C5YZG3)
